From patent publication US8735446B2, “Vanillin acetals and sensory stimulant composition containing the same” (Takasago International Corporation, priority 2005, dated 2014)

What follows are molecules tested on ten expert panelists (assay: Sensory Evaluation 1: oral evaluation of 10 ppm aqueous solutions). Conditions: in vivo.
Parameters: species or system human
Procedure: Compound A and Compound C obtained in Example 1 and Example 3, respectively, were subjected to oral evaluation using 10 ppm aqueous solutions of them by ten expert panelists having 5 or more year experience, and an instantaneous sensation and an intensity of warming sensation and pungent taste were evaluated on the basis of the following evaluation criteria. On the sensory evaluation, 4-(l-methoxymethyl)-2-(3′-methoxy-4′-hydroxyphenyl)-1,3-dioxolan (Comparative compound A: the compound described in JP-A-8-225564) was used as a comparative compound. The evaluation results in the table show the average value of ten panelists.

Row | SMILES | odor
1 | COCC1COC(c2ccc(O)c(OC)c2)O1 (stereo not drawn) [Comparative compound A, 4-(l-methoxymethyl)-2-(3′-methoxy-4′-hydroxyphenyl)-1,3-dioxolan, reference compound] | almost odorless
2 | CCCCC1COC(c2ccc(O)c(OC)c2)O1 (stereo not drawn) [Compound A, vanillin-1,2-hexylene glycol acetal] | almost odorless
3 | CCCCOCC1COC(c2ccc(O)c(OC)c2)O1 (stereo not drawn) [Compound C, vanillin-1-butoxyglycerol acetal] | almost odorless
